# Data published in the supplement of paper PMC11732987, “Enantioselective OTUD7B fragment discovery through chemoproteomics screening and high-throughput optimisation” (Communications Chemistry, 2025).
# By UniProt entry, the sequences of proteins in these tests, tags left out. Where a name states a change or a piece, a line headed by the entry shows the natural chain unless it says otherwise. Residues count along the entry.
# UniProt Q9NVI1: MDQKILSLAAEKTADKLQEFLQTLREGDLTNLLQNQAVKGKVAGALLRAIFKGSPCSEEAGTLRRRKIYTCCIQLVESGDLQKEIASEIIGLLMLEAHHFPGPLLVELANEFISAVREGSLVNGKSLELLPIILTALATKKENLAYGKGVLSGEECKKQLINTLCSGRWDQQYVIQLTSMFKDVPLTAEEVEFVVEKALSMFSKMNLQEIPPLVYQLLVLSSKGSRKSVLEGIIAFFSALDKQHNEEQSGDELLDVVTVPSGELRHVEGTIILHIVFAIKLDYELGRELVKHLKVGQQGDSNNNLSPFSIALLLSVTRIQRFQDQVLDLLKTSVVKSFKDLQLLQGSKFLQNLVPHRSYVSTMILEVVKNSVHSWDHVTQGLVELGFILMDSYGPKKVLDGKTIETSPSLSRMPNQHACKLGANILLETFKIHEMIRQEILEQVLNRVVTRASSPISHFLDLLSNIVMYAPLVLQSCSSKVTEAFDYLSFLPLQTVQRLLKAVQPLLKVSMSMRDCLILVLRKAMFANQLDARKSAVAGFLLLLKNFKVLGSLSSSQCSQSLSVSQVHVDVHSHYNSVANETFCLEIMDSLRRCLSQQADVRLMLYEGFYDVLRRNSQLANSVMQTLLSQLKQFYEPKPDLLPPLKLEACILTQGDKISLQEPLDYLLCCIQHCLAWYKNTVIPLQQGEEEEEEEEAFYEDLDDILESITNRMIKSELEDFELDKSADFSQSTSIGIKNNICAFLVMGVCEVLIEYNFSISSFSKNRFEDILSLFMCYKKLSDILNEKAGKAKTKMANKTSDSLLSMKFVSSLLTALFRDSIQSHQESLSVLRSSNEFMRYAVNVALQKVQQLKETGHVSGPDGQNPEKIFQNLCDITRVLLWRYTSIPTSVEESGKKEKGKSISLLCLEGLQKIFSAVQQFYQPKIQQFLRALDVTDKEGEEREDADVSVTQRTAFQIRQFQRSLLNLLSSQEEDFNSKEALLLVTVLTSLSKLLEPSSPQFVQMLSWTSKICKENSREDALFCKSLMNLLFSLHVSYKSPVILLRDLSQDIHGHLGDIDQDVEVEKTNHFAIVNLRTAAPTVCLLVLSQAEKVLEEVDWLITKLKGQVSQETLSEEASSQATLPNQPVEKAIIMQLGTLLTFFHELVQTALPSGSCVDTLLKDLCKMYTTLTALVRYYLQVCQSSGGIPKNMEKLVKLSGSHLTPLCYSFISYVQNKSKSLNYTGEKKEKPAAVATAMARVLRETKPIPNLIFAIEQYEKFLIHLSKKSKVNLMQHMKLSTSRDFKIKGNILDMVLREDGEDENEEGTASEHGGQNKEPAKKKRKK
# UniProt Q6IA86: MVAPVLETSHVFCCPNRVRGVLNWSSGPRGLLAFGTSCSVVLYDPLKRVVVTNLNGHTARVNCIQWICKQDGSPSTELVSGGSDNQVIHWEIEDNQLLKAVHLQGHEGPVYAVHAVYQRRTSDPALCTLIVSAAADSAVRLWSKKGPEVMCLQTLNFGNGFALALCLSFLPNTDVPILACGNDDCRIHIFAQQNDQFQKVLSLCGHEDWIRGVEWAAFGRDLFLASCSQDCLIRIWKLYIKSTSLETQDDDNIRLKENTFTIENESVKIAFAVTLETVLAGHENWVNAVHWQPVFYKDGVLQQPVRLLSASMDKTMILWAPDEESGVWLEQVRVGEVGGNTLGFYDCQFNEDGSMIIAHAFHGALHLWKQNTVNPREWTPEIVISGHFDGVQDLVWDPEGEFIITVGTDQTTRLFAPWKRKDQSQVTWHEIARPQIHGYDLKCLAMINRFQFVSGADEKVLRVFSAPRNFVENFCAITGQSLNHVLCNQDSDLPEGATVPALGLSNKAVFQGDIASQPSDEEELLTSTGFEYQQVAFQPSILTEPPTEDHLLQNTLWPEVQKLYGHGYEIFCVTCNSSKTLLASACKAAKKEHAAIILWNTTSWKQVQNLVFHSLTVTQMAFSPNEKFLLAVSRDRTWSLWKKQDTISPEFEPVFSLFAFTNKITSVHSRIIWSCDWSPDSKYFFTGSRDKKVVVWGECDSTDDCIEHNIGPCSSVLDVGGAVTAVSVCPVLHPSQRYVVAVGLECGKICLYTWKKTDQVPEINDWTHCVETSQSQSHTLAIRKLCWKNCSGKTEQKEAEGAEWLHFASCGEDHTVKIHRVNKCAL
# UniProt Q8TAV0: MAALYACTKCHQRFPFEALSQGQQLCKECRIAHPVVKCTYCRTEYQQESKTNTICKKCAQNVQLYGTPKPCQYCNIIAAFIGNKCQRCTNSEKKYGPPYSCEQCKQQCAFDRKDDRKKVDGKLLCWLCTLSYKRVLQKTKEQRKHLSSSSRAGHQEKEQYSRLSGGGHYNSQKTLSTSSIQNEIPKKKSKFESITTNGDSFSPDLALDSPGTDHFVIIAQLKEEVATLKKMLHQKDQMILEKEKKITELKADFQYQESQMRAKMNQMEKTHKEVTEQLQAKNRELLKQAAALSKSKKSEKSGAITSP
# UniProt Q8WU58, 280-300: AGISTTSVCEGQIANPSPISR
# UniProt Q96AY2: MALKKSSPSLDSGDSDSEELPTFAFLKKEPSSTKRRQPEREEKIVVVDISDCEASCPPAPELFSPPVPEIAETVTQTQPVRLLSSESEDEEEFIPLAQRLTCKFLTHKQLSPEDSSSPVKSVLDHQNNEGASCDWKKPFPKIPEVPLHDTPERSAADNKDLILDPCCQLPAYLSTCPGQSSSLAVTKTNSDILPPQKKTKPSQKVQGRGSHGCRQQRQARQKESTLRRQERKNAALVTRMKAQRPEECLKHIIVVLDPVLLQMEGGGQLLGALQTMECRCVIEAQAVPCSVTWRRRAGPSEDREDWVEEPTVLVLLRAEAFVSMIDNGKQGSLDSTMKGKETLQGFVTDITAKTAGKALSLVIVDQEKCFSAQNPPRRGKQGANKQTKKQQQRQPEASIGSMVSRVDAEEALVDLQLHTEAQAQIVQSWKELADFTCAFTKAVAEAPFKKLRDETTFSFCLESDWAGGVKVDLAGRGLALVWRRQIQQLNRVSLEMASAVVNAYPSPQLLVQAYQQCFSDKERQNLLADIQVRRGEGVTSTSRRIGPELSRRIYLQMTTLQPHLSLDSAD
# UniProt Q17RN3: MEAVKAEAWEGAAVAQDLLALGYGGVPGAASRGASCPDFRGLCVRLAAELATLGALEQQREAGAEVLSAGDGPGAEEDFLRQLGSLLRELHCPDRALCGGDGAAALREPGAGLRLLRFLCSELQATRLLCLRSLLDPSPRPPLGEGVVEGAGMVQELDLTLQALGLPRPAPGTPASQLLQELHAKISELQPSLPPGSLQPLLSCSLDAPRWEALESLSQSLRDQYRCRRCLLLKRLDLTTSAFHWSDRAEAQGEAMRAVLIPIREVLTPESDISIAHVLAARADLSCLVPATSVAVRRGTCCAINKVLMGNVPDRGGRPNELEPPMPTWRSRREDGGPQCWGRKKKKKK
# UniProt Q52LR7, 413-432: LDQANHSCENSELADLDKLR
# UniProt Q9NY74: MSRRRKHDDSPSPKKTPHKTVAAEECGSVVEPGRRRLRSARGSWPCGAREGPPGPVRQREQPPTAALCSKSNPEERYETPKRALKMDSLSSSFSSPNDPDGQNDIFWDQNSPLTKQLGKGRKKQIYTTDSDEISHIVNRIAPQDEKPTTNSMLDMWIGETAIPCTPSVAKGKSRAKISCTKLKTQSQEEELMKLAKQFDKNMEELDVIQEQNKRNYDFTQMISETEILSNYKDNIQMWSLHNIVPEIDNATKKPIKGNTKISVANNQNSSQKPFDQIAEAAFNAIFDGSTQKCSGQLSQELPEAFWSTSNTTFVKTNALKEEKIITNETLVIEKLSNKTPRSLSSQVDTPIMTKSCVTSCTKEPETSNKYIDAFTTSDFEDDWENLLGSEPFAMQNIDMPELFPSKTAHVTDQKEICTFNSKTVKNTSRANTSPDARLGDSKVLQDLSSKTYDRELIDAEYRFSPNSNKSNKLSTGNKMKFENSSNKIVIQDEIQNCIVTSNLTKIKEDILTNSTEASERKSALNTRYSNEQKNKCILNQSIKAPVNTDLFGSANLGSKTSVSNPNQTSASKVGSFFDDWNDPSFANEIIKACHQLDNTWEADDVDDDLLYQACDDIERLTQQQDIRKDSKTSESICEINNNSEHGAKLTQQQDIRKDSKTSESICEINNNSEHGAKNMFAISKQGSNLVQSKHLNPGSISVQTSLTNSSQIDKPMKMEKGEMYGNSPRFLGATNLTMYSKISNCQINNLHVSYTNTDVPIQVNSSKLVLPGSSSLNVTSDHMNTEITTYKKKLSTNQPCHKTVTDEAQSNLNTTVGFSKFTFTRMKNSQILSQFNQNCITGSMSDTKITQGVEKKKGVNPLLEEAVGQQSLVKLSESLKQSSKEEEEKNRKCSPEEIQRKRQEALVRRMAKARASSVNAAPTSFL
# UniProt Q9BV81: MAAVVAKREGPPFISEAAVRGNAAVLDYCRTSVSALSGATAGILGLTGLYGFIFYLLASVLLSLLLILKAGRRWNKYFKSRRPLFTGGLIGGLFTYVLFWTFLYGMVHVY
# UniProt Q14674: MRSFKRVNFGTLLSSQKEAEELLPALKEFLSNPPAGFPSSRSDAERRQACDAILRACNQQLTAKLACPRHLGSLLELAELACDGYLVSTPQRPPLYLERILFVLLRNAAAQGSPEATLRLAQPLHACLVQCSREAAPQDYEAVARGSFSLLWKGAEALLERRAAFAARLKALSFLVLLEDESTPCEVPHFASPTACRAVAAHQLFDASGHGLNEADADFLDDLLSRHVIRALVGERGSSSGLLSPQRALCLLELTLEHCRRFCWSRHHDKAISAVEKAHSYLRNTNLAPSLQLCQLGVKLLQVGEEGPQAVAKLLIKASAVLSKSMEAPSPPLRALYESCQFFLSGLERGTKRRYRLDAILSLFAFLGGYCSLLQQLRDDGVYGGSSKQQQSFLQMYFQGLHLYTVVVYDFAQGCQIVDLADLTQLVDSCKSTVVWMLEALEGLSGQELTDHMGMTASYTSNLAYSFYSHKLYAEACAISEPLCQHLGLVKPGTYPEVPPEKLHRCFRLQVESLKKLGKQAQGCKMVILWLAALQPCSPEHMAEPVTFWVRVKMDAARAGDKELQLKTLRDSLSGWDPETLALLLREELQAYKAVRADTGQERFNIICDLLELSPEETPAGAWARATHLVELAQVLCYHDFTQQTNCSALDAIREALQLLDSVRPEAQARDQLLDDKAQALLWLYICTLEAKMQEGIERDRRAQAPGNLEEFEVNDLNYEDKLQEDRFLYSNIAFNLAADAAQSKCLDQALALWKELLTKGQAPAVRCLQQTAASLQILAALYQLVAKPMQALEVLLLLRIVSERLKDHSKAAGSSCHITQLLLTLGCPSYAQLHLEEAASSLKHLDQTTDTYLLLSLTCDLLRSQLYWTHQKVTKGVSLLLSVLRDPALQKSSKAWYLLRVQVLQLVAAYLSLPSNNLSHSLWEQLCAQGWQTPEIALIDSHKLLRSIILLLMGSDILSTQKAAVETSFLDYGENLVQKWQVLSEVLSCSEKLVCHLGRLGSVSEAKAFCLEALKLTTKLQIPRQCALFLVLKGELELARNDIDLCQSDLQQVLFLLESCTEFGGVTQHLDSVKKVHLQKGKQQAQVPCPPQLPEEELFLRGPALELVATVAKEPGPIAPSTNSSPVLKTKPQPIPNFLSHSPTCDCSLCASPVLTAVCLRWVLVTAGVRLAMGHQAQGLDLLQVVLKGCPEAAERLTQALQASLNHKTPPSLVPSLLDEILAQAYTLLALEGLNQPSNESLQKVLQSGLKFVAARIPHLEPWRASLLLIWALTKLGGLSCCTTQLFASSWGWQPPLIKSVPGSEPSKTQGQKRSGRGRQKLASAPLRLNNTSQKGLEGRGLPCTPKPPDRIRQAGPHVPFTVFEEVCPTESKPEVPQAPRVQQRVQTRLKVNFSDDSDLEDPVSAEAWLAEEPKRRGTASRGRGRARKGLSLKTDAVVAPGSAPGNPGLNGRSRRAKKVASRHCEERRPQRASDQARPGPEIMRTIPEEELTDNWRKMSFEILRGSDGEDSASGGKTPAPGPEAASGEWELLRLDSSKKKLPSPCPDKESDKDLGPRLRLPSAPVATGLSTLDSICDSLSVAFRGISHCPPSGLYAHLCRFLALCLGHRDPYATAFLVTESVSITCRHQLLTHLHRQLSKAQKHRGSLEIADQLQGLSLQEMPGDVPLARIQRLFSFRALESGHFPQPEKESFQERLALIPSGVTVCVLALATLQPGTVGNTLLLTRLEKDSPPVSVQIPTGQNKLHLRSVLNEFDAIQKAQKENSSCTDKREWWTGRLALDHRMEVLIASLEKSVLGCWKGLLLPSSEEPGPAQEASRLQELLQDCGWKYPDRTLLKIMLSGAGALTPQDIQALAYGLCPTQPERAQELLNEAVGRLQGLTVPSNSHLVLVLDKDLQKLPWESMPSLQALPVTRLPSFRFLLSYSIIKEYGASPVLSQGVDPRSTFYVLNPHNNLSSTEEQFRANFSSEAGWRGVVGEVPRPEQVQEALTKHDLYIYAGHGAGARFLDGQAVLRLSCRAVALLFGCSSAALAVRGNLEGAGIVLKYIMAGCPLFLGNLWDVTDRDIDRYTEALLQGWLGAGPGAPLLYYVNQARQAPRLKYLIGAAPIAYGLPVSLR
# The list shows a part of the results. The data scatter; read single values as rough.
# Compound: ClCC(=O)N[C@H]1CCCc2ccccc12
# Experiment: log2 mean competition ratio of IA-DTB cysteine labelling (DMSO/compound) (log2 ratio); higher = stronger cysteine engagement by compound
# Conditions: 200 µM; treatment time: 4 h; cell line lysate: HEK293T
# Protocol: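 IA-DTB competitive cysteine chemoproteomics in HEK293T RIPA lysate. Lysates were treated with compound 29 or 30 at 50 or 200 µM for 4 h, then IA-DTB (500 µM, 1 h), trypsin-digested, NeutrAvidin-enriched and analysed by diaPASEF. Competition ratio = intensity DMSO / intensity compound (n=4 treated, n=64 DMSO); binding: mean log2 CR ≥ 1 and p ≤ 0.05 plus QC filters. Target is the cysteine site.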
row,Target,log2 mean competition ratio
1,ESYT2 C611,-0.298
2,EXOSC10 C73 (UniProt Q01780),-0.0793
3,FANCI C875 (UniProt Q9NVI1),0.00585
4,ERCC2 C259 (UniProt P18074),0.0461
5,FANCI C1025 (UniProt Q9NVI1),0.0265
6,EPS8 C331,-0.0216
7,ELP2 C586 (UniProt Q6IA86),-0.0475
8,EPRS1 C660,-0.104
9,FAM76A C7 (UniProt Q8TAV0),0.0894
10,FAM120A C174,-0.159
11,FAM222B C288 (UniProt Q8WU58),0.267
12,ETFA C155 (UniProt P13804),0.0345
13,FANCM C1704,-0.144
14,EYA4 C16 (UniProt O95677),0.299
15,ENGASE C113 (UniProt Q8NFI3),0.125
16,EME1 C248 (UniProt Q96AY2),-0.0295
17,ENOSF1 C307 (UniProt Q7L5Y1),0.921
18,FAM98C C36 (UniProt Q17RN3),0.401
19,FAM171A2 C742 (UniProt A8MVW0),0.188

# At a glance, part of the list above:
row,Target,log2 mean competition ratio
16,EME1 C248 (UniProt Q96AY2),-0.0295
17,ENOSF1 C307 (UniProt Q7L5Y1),0.921
18,FAM98C C36 (UniProt Q17RN3),0.401

# (list continues)

row,Target,log2 mean competition ratio
1,EP400 C2007 (UniProt Q96L91),0.0759
2,FAM91A1 C141 (UniProt Q658Y4),0.23
3,FAM189B C163,0.396
4,FANCI C419 (UniProt Q9NVI1),1.01
5,FAM136A C114 (UniProt Q96C01),0.519
6,FAM98C C340 (UniProt Q17RN3),0.139
7,FAM114A2 C388 (UniProt Q9NRY5),-0.357
8,FANCI C56 (UniProt Q9NVI1),-0.00856
9,EPC2 C420 (UniProt Q52LR7),0.194
10,ESCO1 C483,-0.373
11,ETHE1 C170 (UniProt O95571),0.185
12,ETAA1 C637(C666) (UniProt Q9NY74),0.0193
13,EME1 C133 (UniProt Q96AY2),-0.0425
14,EMC6 C29 (UniProt Q9BV81),0.00651
15,ERP44 C92 (UniProt Q9BS26),-0.132
16,ESPL1 C1345 (UniProt Q14674),-0.218
17,ERCC6 C1464,0.178
18,ERCC4 C143 (UniProt Q92889),-0.0901
